Results deposited as PubChem BioAssay AID1224830 (NIAID, 2016)
In all, the deposit lists about 18,000 reagents; below is a part drawn at random. Over the whole deposit, about 2,900 (16%) are marked active. 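Calls are made per well; low scores hint the gene aids the LPS response, high scores that it dampens it.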 Repeated entries: four replicate wells of each siRNA pool. Reagent sequences are not shown.

- Screen: 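Host factors that control LPS-induced TNF expression in human macrophages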 (primary screen)
- System: human THP-1 monocytic leukaemia cells, TNF dual-luciferase reporter clone, PMA-differentiated to macrophage-like cells
- Reagent: siRNA pool against human genes, 50 nM
- Time to read-out: LPS for 4 h, given about 3 days after siRNA transfection
- Conditions: bacterial LPS (TLR4 ligand), 10 ng/ml
- Detection: 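TNF firefly reporter luminescence divided by renilla, normalised to the plate median, then turned into a robust z-score for each replicate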
- Scale: TNF reporter robust z-score: higher = stronger TNF reporter response to LPS
- Active means: 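Each well counts as active if its z-score is over 2.8 or under -1.5; controls are left without a call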

MRPL27 (mitochondrial ribosomal protein L27)
- TNF reporter robust z-score: 0.98
- call: inactive

MRPL27 (mitochondrial ribosomal protein L27)
- TNF reporter robust z-score: 0.75
- call: inactive

MRPL27 (mitochondrial ribosomal protein L27)
- TNF reporter robust z-score: 2.08
- call: inactive

MRPL27 (mitochondrial ribosomal protein L27)
- TNF reporter robust z-score: 1.37
- call: inactive

ALB (albumin)
- TNF reporter robust z-score: 0.74
- call: inactive

ALB (albumin)
- TNF reporter robust z-score: 0.67
- call: inactive

ALB (albumin)
- TNF reporter robust z-score: 0.05
- call: inactive

ALB (albumin)
- TNF reporter robust z-score: 0.35
- call: inactive

MGAT4A
- TNF reporter robust z-score: -0.62
- call: inactive

MGAT4A
- TNF reporter robust z-score: 0.13
- call: inactive

MGAT4A
- TNF reporter robust z-score: -0.61
- call: inactive

MGAT4A
- TNF reporter robust z-score: -0.14
- call: inactive

C3orf62 (chromosome 3 open reading frame 62)
- TNF reporter robust z-score: 0.11
- call: inactive

C3orf62 (chromosome 3 open reading frame 62)
- TNF reporter robust z-score: 0.84
- call: inactive

C3orf62 (chromosome 3 open reading frame 62)
- TNF reporter robust z-score: 1.27
- call: inactive

C3orf62 (chromosome 3 open reading frame 62)
- TNF reporter robust z-score: 0.9
- call: inactive

KIR3DL1
- TNF reporter robust z-score: 2.05
- call: inactive

KIR3DL1
- TNF reporter robust z-score: -0.11
- call: inactive

KIR3DL1
- TNF reporter robust z-score: 0.25
- call: inactive

KIR3DL1
- TNF reporter robust z-score: -0.9
- call: inactive

SPATA12 (spermatogenesis associated 12)
- TNF reporter robust z-score: -1.53
- call: active

SPATA12 (spermatogenesis associated 12)
- TNF reporter robust z-score: -0.98
- call: inactive

SPATA12 (spermatogenesis associated 12)
- TNF reporter robust z-score: -1.74
- call: active

SPATA12 (spermatogenesis associated 12)
- TNF reporter robust z-score: -0.68
- call: inactive

KCNJ16 (potassium inwardly rectifying channel subfamily J member 16)
- TNF reporter robust z-score: 0.37
- call: inactive

KCNJ16 (potassium inwardly rectifying channel subfamily J member 16)
- TNF reporter robust z-score: -0.96
- call: inactive

KCNJ16 (potassium inwardly rectifying channel subfamily J member 16)
- TNF reporter robust z-score: -0.9
- call: inactive

KCNJ16 (potassium inwardly rectifying channel subfamily J member 16)
- TNF reporter robust z-score: -0.56
- call: inactive

SOHLH2
- TNF reporter robust z-score: 0.11
- call: inactive

SOHLH2
- TNF reporter robust z-score: -0.68
- call: inactive

SOHLH2
- TNF reporter robust z-score: -0.84
- call: inactive

SOHLH2
- TNF reporter robust z-score: -0.46
- call: inactive

TFCP2 (transcription factor CP2)
- TNF reporter robust z-score: 1.06
- call: inactive

TFCP2 (transcription factor CP2)
- TNF reporter robust z-score: 0.77
- call: inactive

TFCP2 (transcription factor CP2)
- TNF reporter robust z-score: -0.35
- call: inactive

TFCP2 (transcription factor CP2)
- TNF reporter robust z-score: 0.17
- call: inactive

OR6N1 (olfactory receptor family 6 subfamily N member 1)
- TNF reporter robust z-score: 0.12
- call: inactive

OR6N1 (olfactory receptor family 6 subfamily N member 1)
- TNF reporter robust z-score: -1.96
- call: active

OR6N1 (olfactory receptor family 6 subfamily N member 1)
- TNF reporter robust z-score: 0.1
- call: inactive

OR6N1 (olfactory receptor family 6 subfamily N member 1)
- TNF reporter robust z-score: 1.11
- call: inactive

NCKAP1L (NCK associated protein 1 like)
- TNF reporter robust z-score: 0.79
- call: inactive

NCKAP1L (NCK associated protein 1 like)
- TNF reporter robust z-score: 0.35
- call: inactive

NCKAP1L (NCK associated protein 1 like)
- TNF reporter robust z-score: 0.71
- call: inactive

NCKAP1L (NCK associated protein 1 like)
- TNF reporter robust z-score: 0.99
- call: inactive

ZSCAN31 (zinc finger and SCAN domain containing 31)
- TNF reporter robust z-score: 0.43
- call: inactive

ZSCAN31 (zinc finger and SCAN domain containing 31)
- TNF reporter robust z-score: 0.54
- call: inactive

ZSCAN31 (zinc finger and SCAN domain containing 31)
- TNF reporter robust z-score: -0.03
- call: inactive

ZSCAN31 (zinc finger and SCAN domain containing 31)
- TNF reporter robust z-score: 0.53
- call: inactive
